PubChem BioAssay AID743121 | NCATS, 2013

Assay: 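Genes whose silencing strengthens cell killing by camptothecin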 (primary screen)
System: MDA-MB-231 cells, a human breast cancer line
Reagent: single siRNA against human genes, 20 nM siRNA (0.8 pmol per well)
Time to read-out: 120 h (drug added 48 h after transfection, read 72 h later)
Challenge: camptothecin 20 nM (about EC30) for 72 h; vehicle 0.1% DMSO in parallel plates
Detection: 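CellTiter-Glo ATP signal, scaled to control siRNA as percent viability; sensitisation given as log2 of untreated divided by camptothecin-treated viability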
Reading the numbers: log2 vehicle/camptothecin viability: higher = stronger sensitisation to camptothecin
Rule for the call: 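Each gene scored by redundant siRNA activity (RSA) over its individual siRNA ratios; a gene is called active at p < 0.001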
The deposit covers about 26,000 reagents; this is a part drawn at random. 167 of all reagents (0.63%) count as active. 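Calls are per gene from RSA p-values that are not deposited; an individual active-marked siRNA can sensitise only weakly.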 Unmarked entries are inactive. Reagents against one gene are numbered here. Not all columns of the deposit are shown.

target,reagent,log2 vehicle/camptothecin viability
CD207,1,-0.0916
CD207,2,-0.009
CD207,3,-0.108
TBCK,1,-0.216
TBCK,2,-0.179
TBCK,3,-0.378
KCNJ3,1,-0.105
KCNJ3,2,0.0563
KCNJ3,3,-0.0525
GUCY2D,1,0.06
GUCY2D,2,-0.00268
GUCY2D,3,-0.189
GUCY2D,4,0.667
SENP5,1,-0.00327
SENP5,2,-0.112
SENP5,3,-0.18
IL17RD,1,-0.348
IL17RD,2,-0.0194
IL17RD,3,-0.301
IL17RD,4,-0.253
STAT5B,1,-0.121
STAT5B,2,-0.022
STAT5B,3,-0.35
STAT5B,4,-0.403
PSMB4,1,-0.881
PSMB4,2,-0.583
PSMB4,3,0.547
PSMB4,4,-0.0717
GP9,1,1.02
GP9,2,-0.338
GP9,3,-0.575
GP9,4,0.639
SLCO1B1,1,0.14
SLCO1B1,2,0.0545
SLCO1B1,3,-0.371
SLCO1B1,4,-0.195
SLC25A31,1,-0.127
SLC25A31,2,0.14
SLC25A31,3,-0.126
SLC25A31,4,0.188
PPP3CC,1,0.466
PPP3CC,2,0.312
PPP3CC,3,-0.293
PPP3CC,4,-0.0426
LRRC47,1,0.29
LRRC47,2,0.0856
LRRC47,3,-0.146
LRRC47,4,-0.454

3 successive entries already listed:
target,reagent,log2 vehicle/camptothecin viability
TBCK,2,-0.179
TBCK,3,-0.378
KCNJ3,1,-0.105
